For at least one compound, name, drawing or mass did not settle the structure.
Test system: porcine islets
Assay: Static glucose stimulation (SGS): insulin secretion of cultured porcine islets
Type: cell-based
Description: Static glucose stimulation (SGS) is used to assess in vitro function of the porcine islets by exposing them to low and high concentrations of glucose and theophylline. Determination of the in vitro insulin secretory capacity is undertaken on both free islets (after 3 days in culture) and after their subsequent encapsulation or confinement.
Keep the cells 3 days in culture before Static Glucose Stimulation (SGS). SGS involves exposure of the cells to low and high concentration of glucose to check insulin production. Using 0.1 ug/ml concentration add IGF1 and GPE to two plates 24 hours before SGS (day 2 after isolation)

SMILES: NCC(=O)N1CCC[C@H]1C(=O)N[C@@H](CCC(=O)O)C(=O)O [GPE, gly-pro-glu, reference compound]
- concentration in culture sufficient to produce optimal response during glucose challenge (GPE in culture): 0.01 µg/mL
- Stimulation Index (GPE used, control 13.3): 24.8
- effect of increasing the concentration in culture on insulin response (above the sufficient concentration): No further benefit
- increase of insulin response to glucose compared with the control cells (neonatal porcine islets in culture exposed to GPE): up to 11.5 fold
